No constants are given. Whether binding was seen depends on the method and setting. Binding seen in cells or lysates may run through a third protein. Here binding means that the protein was enriched with, or labelled near, the bait; the list need not be complete.

By UniProt entry, the sequences of proteins in these tests, tags left out. Where a name states a change or a piece, a line headed by the entry shows the natural chain unless it says otherwise.
UniProt Q9Y165: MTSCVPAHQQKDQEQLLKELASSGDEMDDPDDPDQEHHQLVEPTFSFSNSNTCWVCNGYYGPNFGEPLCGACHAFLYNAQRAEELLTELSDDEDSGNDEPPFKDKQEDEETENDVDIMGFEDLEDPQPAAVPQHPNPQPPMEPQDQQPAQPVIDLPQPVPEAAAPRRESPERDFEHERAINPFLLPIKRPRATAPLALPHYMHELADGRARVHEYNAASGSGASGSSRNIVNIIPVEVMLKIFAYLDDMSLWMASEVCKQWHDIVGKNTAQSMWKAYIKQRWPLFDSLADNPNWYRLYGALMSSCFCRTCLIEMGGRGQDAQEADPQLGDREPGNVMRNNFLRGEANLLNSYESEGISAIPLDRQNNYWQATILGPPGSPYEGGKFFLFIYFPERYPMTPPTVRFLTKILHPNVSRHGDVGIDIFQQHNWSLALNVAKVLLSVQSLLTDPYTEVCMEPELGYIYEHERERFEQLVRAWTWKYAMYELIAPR
UniProt O77430: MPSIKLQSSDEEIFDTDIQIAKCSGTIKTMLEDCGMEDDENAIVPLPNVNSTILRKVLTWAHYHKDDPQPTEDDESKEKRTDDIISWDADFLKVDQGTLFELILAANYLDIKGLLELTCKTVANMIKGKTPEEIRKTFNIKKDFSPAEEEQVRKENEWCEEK

In the experiment the target is Morgue:3xFLAG (Drosophila) (UniProt Q9Y165). Description: affinity purification with mass spectrometry; lysate of whole adult flies on M2 anti-FLAG resin, 2 h at 4°C, 150 mM NaCl, 1% Triton X-100; eluate on SDS gel (silver or Coomassie stain); bands cut out, trypsin, MALDI-TOF/TOF.

Turning to SkpA (from UniProt O77430 1-162), the binding entry is “binds”.

Source of the values: article PMC3787007.
